{
  "source": "PubChem BioAssay AID540256",
  "about": "(National Center for Advancing Translational Sciences (NCATS), 2011)",
  "note": "Among all 300,000 compounds or so, about 3,700 (1.2%) were called active. The shares of active, inactive and inconclusive entries below differ from those in the screen. The call rests on the fitted dose curve; tested in HEK293 cells. Where the call is inconclusive, the potency comes from a doubtful curve fit. Some structures have more than one record in an assay (separate samples or runs), and their calls can disagree. Potency means the concentration at half of the fitted maximal effect.",
  "data": [
    {"assay": "qHTS for Inhibitors of binding or entry into cells for Lassa Virus; further: nearly all actives have a fitted effect of over 50% in size", "details": "Lassa virus pseudotype entry inhibition, cell reporter; series mostly up to 37.9 µM", "values": [
      {"smiles": "CC(C)c1nc(SCC(=O)Nc2ccc(C(=O)O)cc2)c2c3c(sc2n1)CCCC3", "Potency": "inconclusive: 1.26 µM [activator, single point]"},
      {"smiles": "O=C(NCCc1ccc(Cl)cc1)c1ccc2ccccc2n1", "Potency": "inactive"},
      {"smiles": "COc1ccccc1NC(=O)Nc1nc(CC(=O)Nc2ccc(F)c(F)c2)cs1", "Potency": "inconclusive: 14.1 µM [inhibitor, single point]"},
      {"smiles": "Cc1cccc(NC(=O)c2ccc(CN3CC(=O)N4CCCCC4C3=O)cc2)c1C", "note": "(configuration not stated)", "Potency": "inactive"},
      {"smiles": "O=C(CN(c1cccc([N+](=O)[O-])c1)S(=O)(=O)c1ccccc1)N(Cc1ccccc1)Cc1ccccc1", "Potency": "inconclusive: 1.12 µM [inhibitor, partial curve]"},
      {"smiles": "Cc1nc2cc(-c3cccc(F)c3)nn2c(C)c1CCC(=O)Nc1ccccc1C(N)=O", "Potency": "inconclusive: 3.98 µM [inhibitor, full curve, poor fit]"},
      {"smiles": "COc1ccc(C(=O)N2CC(c3ccccc3)CC2=O)cc1", "note": "(configuration not stated)", "Potency": "inactive"},
      {"smiles": "Cn1cccc1/C=N/NC(=O)c1ccn[nH]1", "Potency": "inconclusive: 6.31 µM [activator, partial curve, poor fit]"},
      {"smiles": "CCCCn1c(CCCNC(=O)c2cccc(C)c2)nc2ccccc21", "Potency": "inconclusive: 35.5 µM [inhibitor, single point]"},
      {"smiles": "O=C(Nc1ccc(F)cc1)NC1CCN(Cc2nnnn2Cc2ccco2)CC1", "Potency": "inconclusive: 18.3 µM [inhibitor, single point]"},
      {"smiles": "Cc1ccc(-c2sc(-c3cccnc3)nc2CC(=O)O)cc1", "Potency": "inactive"},
      {"smiles": "CCOC(=O)C1(Cc2ccc(OC)cc2)CCN(C(=O)c2csc(C)n2)CC1", "Potency": "inconclusive: 35.5 µM [inhibitor, single point]"},
      {"smiles": "CCCCC1=CC2=C(c3ccco3)C(=O)C(C)(OC(=O)c3ccc(OC)cc3)C(=O)C2=CN1CCCN(CC)CC", "note": "(configuration not stated)", "Potency": "inconclusive: 1.19 µM [activator, single point]"},
      {"smiles": "N/C(=N\\OC(=O)c1ccc(Cl)c([N+](=O)[O-])c1)c1ccccn1", "Potency": "inconclusive: 14.1 µM [inhibitor, single point]"},
      {"smiles": "Cc1ccc2occ(CC(=O)N(Cc3ccc(Cl)cc3)Cc3ccco3)c2c1", "Potency": "inactive"},
      {"smiles": "O=C(NC(=S)NCc1ccc(-c2nc3ccccc3s2)cc1)c1ccco1", "Potency": "inactive"},
      {"smiles": "O=c1cc(CO)oc(CN2CCC(Cc3ccccc3)CC2)c1O", "Potency": "inconclusive: 12.6 µM [activator, partial curve, poor fit]"},
      {"smiles": "Cc1ccc(-n2c(SCC(N)=O)nnc2-c2ccc(S(=O)(=O)N3CCCCC3)cc2)c(C)c1", "Potency": "inconclusive: 0.184 µM [inhibitor, full curve, poor fit]"},
      {"smiles": "Cc1cc(NC(=O)CCC(=O)N(Cc2ccccc2)C(C(=O)NC2CCCC2)c2ccco2)no1", "note": "(configuration not stated)", "Potency": "inconclusive: 31.6 µM [inhibitor, single point]"},
      {"smiles": "CCN1CCN(C(=O)c2ccc(CNS(=O)(=O)c3cccc(OC)c3)cc2)CC1", "Potency": "inactive"},
      {"smiles": "CCn1ncc(/C=N/NC(=O)c2ccc3c(c2)OCO3)c1C", "Potency": "inconclusive: 0.13 µM [activator, single point]"},
      {"smiles": "COc1ccccc1S(=O)(=O)Cc1ccc(C(=O)N2CCN(c3cc(Cl)ccc3C)CC2)o1", "Potency": "inconclusive: 35.5 µM [inhibitor, single point]"},
      {"smiles": "COC(=O)c1c(-c2ccc(Cl)cc2)noc1N1CCN(c2ccccc2OC)CC1", "Potency": "inactive"},
      {"smiles": "Cc1ccc(-c2csc3ncnc(Sc4nnc(CN5CCCCCC5=O)o4)c23)cc1", "Potency": "inconclusive: 29.1 µM [inhibitor, single point]"},
      {"smiles": "CCOc1ccc(S(=O)(=O)NCCC(=O)N(C)Cc2ccc(C)o2)cc1", "Potency": "inconclusive: 2 µM [inhibitor, partial curve]"},
      {"smiles": "O=C(COC(=O)c1ccc2c(c1)OCCO2)NCc1ccccc1Cl", "Potency": "inactive"},
      {"smiles": "O=C(/C=C/NNC(=O)c1ccc(Br)cc1)c1ccccc1", "Potency": "inconclusive: 35.5 µM [inhibitor, single point]"},
      {"smiles": "O=C(NCC1CCN(Cc2cccc(Cl)c2)CC1)Nc1ccc(F)c(Cl)c1", "Potency": "inconclusive: 11.2 µM [inhibitor, partial curve, poor fit]"},
      {"smiles": "COc1ccc2nc(NC(=O)CN(c3ccc(C)cc3)S(=O)(=O)c3c(C)nn(C)c3C)sc2c1", "Potency": "inconclusive: 29.1 µM [inhibitor, single point]"},
      {"smiles": "c1ccc2c(c1)OCC(C1=NCCN1)O2", "note": "(configuration not stated)", "Potency": "active: 2.59 µM"},
      {"smiles": "CC1Cc2ccccc2N1C(=S)Nc1cccc(S(=O)(=O)N(C)C)c1", "note": "(configuration not stated)", "Potency": "inconclusive: 20 µM [inhibitor, single point]"},
      {"smiles": "CC(C)OCCCN1C(=O)c2[nH]nc(-c3ccccc3O)c2C1c1ccccc1F", "note": "(configuration not stated)", "Potency": "inconclusive: 1.26 µM [inhibitor, full curve, poor fit]"},
      {"smiles": "CCOc1ccccc1N1CC(c2nc3ccccc3n2CCCOc2ccc(OC)cc2)CC1=O", "note": "(configuration not stated)", "Potency": "inconclusive: 25.1 µM [inhibitor, single point]"},
      {"smiles": "Cc1noc(-c2ccccc2OCC(=O)Nc2ccccc2[N+](=O)[O-])n1", "Potency": "inconclusive: 12.6 µM [inhibitor, single point]"},
      {"smiles": "COc1cccc(CNC(=O)c2ccc(-n3c(C)cc4c3CCCC4)cc2)c1", "Potency": "inconclusive: 12.6 µM [inhibitor, single point]"},
      {"smiles": "Cc1cc(C(=O)CCl)c(C)n1-c1c(C)n(C)n(-c2ccccc2)c1=O", "Potency": "inconclusive: 22.4 µM [inhibitor, single point]"},
      {"smiles": "CCc1ccc(C(=O)CC2(O)C(=O)N(Cc3ccc(C)cc3)c3ccccc32)cc1", "note": "(configuration not stated)", "Potency": "inconclusive: 0.631 µM [inhibitor, full curve, poor fit]"},
      {"smiles": "Cc1cccc(OCc2cc(=O)n3c4c(sc3n2)CCCC4)c1C", "Potency": "inactive"},
      {"smiles": "O=C(N1CCN(c2cccc(Cl)c2)CC1)C1(c2cccs2)CCOCC1", "Potency": "inconclusive: 6.31 µM [inhibitor, full curve]"},
      {"smiles": "CCN(CC)C(=O)c1oc2ccc(S(=O)(=O)N3CCCCCC3)cc2c1C", "Potency": "inconclusive: 20.6 µM [inhibitor, partial curve, poor fit]"},
      {"smiles": "Cc1ccc(SCCNC(=O)/C=C/c2cccc([N+](=O)[O-])c2)cc1", "Potency": "inactive"},
      {"smiles": "COc1ccc(/C=C/C(=O)Nc2ccccc2F)cc1S(=O)(=O)N1CCOCC1", "Potency": "inconclusive: 28.2 µM [inhibitor, single point]"},
      {"smiles": "CNC(=S)N=Nc1c(O)[nH]c2ccc(C(C)C)cc12", "Potency": "inconclusive: 7.08 µM [inhibitor, partial curve, poor fit]"},
      {"smiles": "Cn1c(Cc2c[nH]c3ccccc23)n[nH]c1=S", "Potency": "inactive"},
      {"smiles": "CNC(=O)/C(=C/c1ccc2c(c1)OCO2)NC(=O)c1ccc(Br)cc1", "Potency": "inactive"},
      {"smiles": "COc1ccc(-c2cc(CNS(=O)(=O)c3ccccc3)on2)cc1", "Potency": "inconclusive: 11.2 µM [inhibitor, partial curve, poor fit]"},
      {"smiles": "CN1CCN(C2=C(Cl)C(=O)N(c3ccc(Cl)cc3)C2=O)CC1", "Potency": "inactive"},
      {"smiles": "C/C(=N\\NC(=O)c1ccco1)c1ccc(-c2ccccc2)cc1", "Potency": "inconclusive: 14.1 µM [activator, single point]"},
      {"smiles": "CCC(C)(C)n1nnnc1CN1CCN(C(c2ccccc2)c2ccccc2)CC1", "Potency": "active: 13 µM"},
      {"smiles": "CC(C)C1Cc2c(sc3[nH]c(=S)n(Cc4ccccc4)c(=O)c23)CO1", "note": "(configuration not stated)", "Potency": "active: 0.794 µM"},
      {"smiles": "CCSc1nnc(-c2cccs2)o1", "Potency": "inconclusive: 29.1 µM [activator, single point]"},
      {"smiles": "CCOc1cccc(CN2CCCC(C(=O)c3cccc(C(F)(F)F)c3)C2)c1O", "note": "(configuration not stated)", "Potency": "inconclusive: 0.891 µM [inhibitor, partial curve, poor fit]"},
      {"smiles": "Cc1ccc2nc(CN3CCN(S(=O)(=O)c4ccc(C(C)C)cc4)CC3)oc2c1", "Potency": "inconclusive: 35.5 µM [inhibitor, single point]"},
      {"smiles": "CN(C)CCCn1c(-c2ccc(Cl)cc2)csc1=Nc1ccccc1", "Potency": "inconclusive: 7.08 µM [inhibitor, partial curve, poor fit]"},
      {"smiles": "CCN1C=CC2=C(C#N)C(N)C(C#N)(C#N)C(c3ccccc3C(F)(F)F)C2C1", "note": "(configuration not stated)", "Potency": "inconclusive: 8.91 µM [inhibitor, partial curve, poor fit]"},
      {"smiles": "CC(C)N(CC(N)=O)c1ncnc2sc(-c3ccccc3)cc12", "Potency": "inconclusive: 15.8 µM [inhibitor, single point]"},
      {"smiles": "CN(C)c1ccc(/C=C2\\N=C(c3ccc(Cl)c([N+](=O)[O-])c3)NC2=O)cc1", "Potency": "inconclusive: 12.6 µM [inhibitor, partial curve, poor fit]"},
      {"smiles": "O=C(NCc1nnc2c3ccccc3c(-c3ccccc3)nn12)c1ccccc1Cl", "Potency": "inconclusive: 29.1 µM [inhibitor, single point]"},
      {"smiles": "[O-]c1n[n+](-c2ccc(Cl)cc2)cc2ccccc12", "Potency": "inactive"},
      {"smiles": "C/C(=N\\NC(=O)c1ccc(CSc2nncn2C)cc1)c1ccc(Cl)cc1", "Potency": "inconclusive: 1.26 µM [inhibitor, partial curve, poor fit]"},
      {"smiles": "O=c1cc(CO)oc(CN2CCN(c3ccccc3)CC2)c1O", "Potency": "inconclusive: 1 µM [inhibitor, partial curve, poor fit]"},
      {"smiles": "Cc1cc(C)cc(NC(=O)Cn2c(=O)n(-c3ccc(C)c(C)c3)c(=O)c3oc4ccccc4c32)c1", "Potency": "inactive"},
      {"smiles": "COc1ccc(N2CCN(Cc3nc4c(c(=O)n(C)c(=O)n4C)n3C(C)C)CC2)cc1", "Potency": "inactive"},
      {"smiles": "O=C(O)c1cnn(-c2nc(-c3ccc(F)cc3)cs2)c1C(F)(F)F", "Potency": "inactive"},
      {"smiles": "CC(C)n1cc(NC(=O)COc2ccccc2Cl)cn1", "Potency": "inactive"},
      {"smiles": "Cc1cccc(NC(=S)NC2CCCC2)n1", "Potency": "inconclusive: 10.3 µM [inhibitor, partial curve, poor fit]"},
      {"smiles": "Cc1ccc(-c2cn3nc(N4CCCC(C(=O)NCc5ccc(F)cc5)C4)sc3n2)cc1", "note": "(configuration not stated)", "Potency": "inconclusive: 11.2 µM [activator, partial curve]"}
    ]}
  ]
}
